Test results reported in PubChem BioAssay AID493014 (National Center for Advancing Translational Sciences (NCATS), 2011).
The other results are listed elsewhere or left out. Further columns of the screen follow, without active or inactive calls. Compounds called inactive in the main read-out are mostly missing here. Words in brackets tell the shape of the fitted curve; partial curves, single points and poor fits give uncertain potencies.

Experiment: qHTS Assay to Find Inhibitors of Chronic Active B-Cell Receptor Signaling
Conditions: ABC-DLBCL IkBa-CBG/CBR reporter, luminescence ratio (green luciferase fused to IkBa over red control in TMD8 lymphoma cells), 4 h
Outline: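 TMD8 ABC-DLBCL cells carrying doxycycline-inducible green luciferase fused to IkappaBalpha plus unfused red luciferase were exposed to compounds (up to 46 uM) for 4 hrs at 37C. Activity came from the overlap-corrected green/red luminescence ratio.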

[1] = measured here: CBR red luminescence, cell number
[2] = measured here: IkBa-CBG green luminescence

## O=C(CCSCc1ccccc1Cl)N1CCN(c2cccc(Cl)c2)CC1
[1]
  AC50: 10 µM [rising, partial curve, poor fit]

## C/C(Cn1nc([N+](=O)[O-])cc1C)=N\NC(=O)c1cccc(Br)c1
[1]
  AC50: 20 µM [falling, single point]

## O=C(NCCSc1ccccn1)c1ccc(Cl)cc1
[1]
  AC50: 11.2 µM [falling, single point]

## N#CCc1ccc(NC(=O)CSc2nnc(C3CC3)n2C2CC2)cc1
[1]
  AC50: 1.64 µM [rising, partial curve, poor fit]

## COC(=O)c1ccccc1NC(=O)N[C@@H](C)C(=O)OC
[1]
  AC50: 0.92 µM [falling, full curve, poor fit]

## O=C(Nc1ccncc1)Nc1ccc(F)cc1F
[1]
  AC50: 11.6 µM [falling, partial curve]

## O=C1C=C(NC2=CC3OC(c4ccccc4)OCC3OC2=O)CCC1 (stereo not given)
[1]
  AC50: 8.2 µM [falling, partial curve]
[2]
  AC50: 2.59 µM [rising, full curve, poor fit]

## COc1ccccc1OCC(=O)Nc1ccccc1C(=O)NCc1cccnc1
[1]
  AC50: 0.1 µM [rising, full curve, poor fit]

## Cc1ccc(S(=O)(=O)N(CC(=O)Nc2ccccc2)C(=O)N2CCN(C)CC2)cc1
[1]
  AC50: 4.11 µM [falling, partial curve, poor fit]

## CC(=O)NC(CC(=O)NC1CCCCCC1)c1ccccc1 (stereo not given)
[1]
  AC50: 8.2 µM [rising, partial curve, poor fit]

## CCCCC#Cc1cncc(C(=O)N/N=C/c2ccccc2)c1
[1]
  AC50: 17.8 µM [falling, partial curve, poor fit]

## CC1CC1C(=O)Nc1nc(-c2ccccc2)cs1 (stereo not given)
[1]
  AC50: 16.4 µM [falling, partial curve]

## CCOc1ccc(-c2nn(-c3ccccc3)cc2/C=C2\SC(=S)N(C3CCS(=O)(=O)C3)C2=O)cc1 (stereo not given)
[1]
  AC50: 7.31 µM [falling, single point]

## Cc1nn(C)c(Cl)c1CN1CCN(CCC(C)C)C(CCO)C1 (stereo not given)
[1]
  AC50: 35.5 µM [falling, single point]

## COc1ccc(CCNC(=O)c2cccc(S(=O)(=O)N3CCOCC3)c2)cc1OC
[1]
  AC50: 18.4 µM [rising, partial curve]

## O=C(NC1CCCCC1)c1ccc(CS(=O)(=O)Cc2ccccc2F)o1
[1]
  AC50: 18.4 µM [rising, partial curve]

## O=C(O)c1ccc(N=c2oc3cc(O)ccc3cc2C(=O)NCc2ccccc2)cc1
[1]
  AC50: 5.62 µM [falling, partial curve]

## O=C(N/N=C/c1ccccc1O)C1SCCCS1
[1]
  AC50: 35.5 µM [falling, single point]

## O=C(Nc1nnc(Cc2ccccc2)s1)c1cnccn1
[1]
  AC50: 0.794 µM [rising, full curve]

## Nc1ncc(-c2ccccc2)c(-c2ccc(OCc3ccccc3)cc2O)n1
[1]
  AC50: 11.2 µM [rising, single point]

## COC(=O)c1ccc(Cn2cc(/C=C\[N+](=O)[O-])c3ccccc32)o1
[1]
  AC50: 35.5 µM [rising, single point]
[2]
  AC50: 35.5 µM [falling, single point]

## COC(=O)c1sccc1NC(=O)CSc1nnnn1-c1ccccc1C
[1]
  AC50: 0.00461 µM [falling, full curve, poor fit]

## CCOC(=O)c1sc(-c2ccc(C(F)(F)F)cc2)nc1O
[1]
  AC50: 7.94 µM [rising, partial curve]

## NC(=O)CSc1nc(-c2ccccc2Cl)ns1
[1]
  AC50: 29.1 µM [rising, single point]

## O=C(NC(=S)Nc1cccc(CO)c1)c1ccc(-c2ccccc2)cc1
[1]
  AC50: 23.1 µM [falling, partial curve, poor fit]

## COc1cc2c(cc1OC)C(c1cc(C)ccc1C)CC(=O)N2 (stereo not given)
[2]
  AC50: 12.6 µM [falling, partial curve, poor fit]

## CC1CCCN(C(=O)c2ccc3c(=O)n(C4CCCC4)c(=S)[nH]c3c2)C1 (stereo not given)
[1]
  AC50: 35.5 µM [falling, single point]

## CC1CN(C(=O)Nc2cccc(C(F)(F)F)c2)CC(C)O1 (stereo not given)
[1]
  AC50: 12.6 µM [rising, single point]

## Cc1cc(NC(=O)c2ccccc2Cl)no1
[1]
  AC50: 4.47 µM [falling, partial curve, poor fit]

## COc1ccc(C(=O)Nc2nc(C)c(C)s2)cc1OC
[1]
  AC50: 22.4 µM [falling, single point]

## CC(C)(C)c1cc(-c2ccccc2)no1
[1]
  AC50: 2.82 µM [rising, full curve, poor fit]

## CC1CCCN(C(=O)CSCC(=O)Nc2nc(-c3cccs3)cs2)C1 (stereo not given)
[1]
  AC50: 9.2 µM [falling, partial curve, poor fit]

## O=C(CSc1ncnc2ccccc12)Nc1cccc(S(=O)(=O)N2CCCC2)c1
[1]
  AC50: 3.98 µM [falling, single point]
